{"source": "patent US20220168261A1", "about": "“COMPOUNDS AND METHODS FOR MANAGING CANCER THROUGH IMMUNE SYSTEM” (AKAMARA THERAPEUTICS, INC., priority 2019, published 2022)", "tested_on": "5′ GMP", "assay": "1H NMR reaction with nucleotides"}
{"smiles": "O=C1[O][Pt]2([NH][C@@H]3CCCC[C@H]3[NH]2)[O]C1=O", "note": "[oxaliplatin, reference compound]", "values": [{"measurement": "Adduct formation with 5′ GMP (1H NMR)", "value": "Pt-GMP adduct formation"}]}
{"smiles": "CC(C)CCC[C@@H](C)[C@H]1CCC2C3CC=C4C[C@@H](OCCN(CC(=O)[O-])CC(=O)[O][Pt+]5[NH][C@@H]6CCCC[C@H]6[NH]5)CC[C@]4(C)C3CC[C@@]21C", "note": "(some centres unmarked) [Compound 1]", "values": [{"measurement": "Adduct formation with 5′ GMP (1H NMR)", "value": "does not react with DNA nucleotide"}]}
